The assay addresses Human transferrin receptor (purified, SCIPAC Ltd.) (human) (UniProt P02786). The experiment in a line: monoclonal phage ELISA on coated human transferrin receptor. A general note: ELISA stands for enzyme-linked immunosorbent assay.

This note sets out measurements from patent US20130171061A1.

No constants are given. Whether binding was seen depends on the method and setting. Binding can be weak; no strength is given.

B1: VHD4 anti-human transferrin receptor domain antibody (VHH)
VHH: QVQLLESGGGLVQPGGSLRLSCAASGFKFSAEYMSWVRQAPGKGLEWVSTIKMNNGSTYYADSVKGRFTISRDNSKHTLYLQMNSLRAEDTAVYYCARPMAWRGNVVRAENLRFWGQGTLVTVSS
As for B1, the binding entry is “binds”.

B2: VHA3 anti-human transferrin receptor domain antibody (VHH)
VHH: QVQLLESGGGLVQPGGSLRLSCAASGFIFNTEYMAWVRQAPGKGLEWVSAIKEQSGSTYYADSVKGRFTISRDNSKNTLYLQMNSLRAEDTAVYYCAAQMHHEAEVKFWGQGTLVTVSS
Consider B2, for which the binding entry is reported as “binds”.
